Measurements reported in article PMC6446049 (Alzheimer's & Dementia : Translational Research & Clinical …, 2019).

Experiment: Plasma pharmacokinetics
Conditions: noncompartmental analysis; donepezil 2.5 or 5 mg

COc1cc2c(cc1OC)C(=O)C(CC1CCN(Cc3ccccc3)CC1)C2 (stereo not shown) [DPZ, donepezil, reference compound]
donepezil pharmacokinetic parameters with or without EVP-6124: similar
